In the supplement of paper PMC6924143:

Each sequence was assayed on RAW-Blue (mouse TLR9 reporter, RAW 264.7) (assay: mTLR9 reporter activity (SEAP, QUANTI-Blue absorbance) (OD650); higher = stronger mouse TLR9 activation). Conditions: 3 h.
Protocol: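 Synthetic single-stranded 24-mer CpG ODNs were diluted in saline and added to mouse RAW-Blue cells (RAW 264.7 with an NF-kB/AP-1-inducible SEAP reporter; endogenous mouse TLR9), about 1e5 cells/well. After 3 h, SEAP in the supernatant was read with QUANTI-Blue as absorbance at 650 nm. ODN concentration and backbone chemistry are not stated; activity of 0.4 or above is the paper's high-activity class.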
In the case of TGTTTTAGCGCGTGCGTTTTACGT [ODN056], the mTLR9 reporter activity is reported as 0.164. With TGTTTTCTGCGTTTTGACGAGCGT [ODN016] the mTLR9 reporter activity was 0.595. TGTTTTGAGTCGCGCGTACGTTTT [ODN057] showed a mTLR9 reporter activity of 0.246. TGTTTTGCGCGCAGAGTCTGTTTT [ODN034] was tested, and the mTLR9 reporter activity was 0.316. Work on TGTTTTGCGCTTTTGTGCGCGCGT [ODN039] yielded a mTLR9 reporter activity of 0.305. TGTTTTGTAGCGCGCTGCTTTTGT [ODN044] was tested, and the mTLR9 reporter activity was 0.28. TGTTTTGTGTCGCGCTAGCGTTTT [ODN054] was tested, and the mTLR9 reporter activity was 0.235. TTATTGCGTCGTGCGCGTTTTCGT [ODN215] was tested, and the mTLR9 reporter activity was 0.237. TTCGCAGCGCGTGTCTTCGTTCGT [ODN261] showed a mTLR9 reporter activity of 0.111. With TTCGCGAGCTTCGTGCGCGCTCGT [ODN231] the mTLR9 reporter activity was 0.209. TTCGCGCGCGCGTCTGTGTTGCGT [ODN138] gave a mTLR9 reporter activity of 0.15. Work on TTCGCGCGTTCGTCTCTGTCGTGT [ODN236] yielded a mTLR9 reporter activity of 0.321. TTCGCGTGCAGTAGACTTGACGTT [ODN071] gave a mTLR9 reporter activity of 0.47. TTCGCGTTTGCGTTTCGCGTGTCT [ODN243] gave a mTLR9 reporter activity of 0.23. TTCGCTGATCTGTGTGCGTGTGTT [ODN078] gave a mTLR9 reporter activity of 0.168. Work on TTCGCTGCGTCGCGTGTGCATCTT [ODN245] yielded a mTLR9 reporter activity of 0.183. With TTCGTCGAGTCGCGCGTTCGCTGT [ODN239] the mTLR9 reporter activity was 0.226. Work on TTCGTGCGTGCGTCGCATTTCGCT [ODN199] yielded a mTLR9 reporter activity of 0.181. For TTCGTGTTTTGCGTGCGTTTTCGT [ODN035], the mTLR9 reporter activity was 0. TTCGTTCACGTGCGCGCGTTGTTT [ODN238] was tested, and the mTLR9 reporter activity was 0.187. TTCGTTTGTGCGCATCGTGAGTTT [ODN092] showed a mTLR9 reporter activity of 0.205. Work on TTCTGATGCGCGTCGTGCGTTGCT [ODN271] yielded a mTLR9 reporter activity of 0.135. TTGACGAGTCTTCAGCGTAGTGTT [ODN067] was tested, and the mTLR9 reporter activity was 0.189. Work on TTGAGCGCTTTGTCTCGCGTGCGT [ODN123] yielded a mTLR9 reporter activity of 0.216. Work on TTGCGACGCTGCGTCTTTTGCGCT [ODN232] yielded a mTLR9 reporter activity of 0.199. Sequence TTGCGCGCGTCGCTCTGCGCTGTT [ODN212] has a mTLR9 reporter activity of 0.125. Sequence TTGCGCGTCGTTGCGCTTCTGTCT [ODN233] has a mTLR9 reporter activity of 0.186. TTGCGCTCACATGTGCAGCGTGTT [ODN084] gave a mTLR9 reporter activity of 0.146. TTGCGCTTGTCGCGCGTCTTTAGT [ODN250] gave a mTLR9 reporter activity of 0.2. With TTGCGTCGTATCGCGTGTCTCTGT [ODN162] the mTLR9 reporter activity was 0.136. TTGCGTTGCAGCGTCGCTCGCTGT [ODN267] was tested, and the mTLR9 reporter activity was 0.176. With TTGCGTTTTCGCGCAGAGTTTTGT [ODN008] the mTLR9 reporter activity was 0. Sequence TTGCTACGTCGTGCGTCGTGTGCT [ODN131] has a mTLR9 reporter activity of 0.404. TTGCTGCTGCTAGAGTGCGAGCTT [ODN079] showed a mTLR9 reporter activity of 0.139. Sequence TTGCTTCGCGCTGAGCGTCGTTGT [ODN226] has a mTLR9 reporter activity of 0.185. Sequence TTGCTTCGCTAGCGTCGCGCGTGT [ODN230] has a mTLR9 reporter activity of 0.163. Sequence TTGTCGCGTGACTTGCGTCGTCGT [ODN216] has a mTLR9 reporter activity of 0.201. TTGTCGTAGCTGCGCGTATGATTT [ODN062] was tested, and the mTLR9 reporter activity was 0.276. TTGTTTCGTGTTTTCGACGCGCGT [ODN240] showed a mTLR9 reporter activity of 0.166. Sequence TTTCGCGAGCACTGCAAGCGCGTT [ODN109] has a mTLR9 reporter activity of 0.1. In the case of TTTCGTTTCGCGCTGTGACGCGTT [ODN268], the mTLR9 reporter activity is reported as 0.153. Sequence TTTGCGTCGTGCGTGTGTGATCGT [ODN248] has a mTLR9 reporter activity of 0.179. With TTTGCTCGACGTTCGCGTGTTCGT [ODN124] the mTLR9 reporter activity was 0.416. TTTGTGTGCGCGCGCGTGTTTTTT [ODN224] showed a mTLR9 reporter activity of 0.187. With TTTGTTCGTTTTAGTTGCGCGCGT [ODN259] the mTLR9 reporter activity was 0.154. In the case of TTTTAGCAGCGTTTTGCTGCGTGT [ODN029], the mTLR9 reporter activity is reported as 0.369. Work on TTTTAGCGCGCGTTGCTGTTTTGT [ODN049] yielded a mTLR9 reporter activity of 0.27. For TTTTAGCGTTTTGAGCTCGTGCGT [ODN002], the mTLR9 reporter activity was 0.939. Work on TTTTCGAGCGTTTTGCAGCGCGCT [ODN004] yielded a mTLR9 reporter activity of 0.943. For TTTTCGAGTTGCGCGCGATTTTGT [ODN040], the mTLR9 reporter activity was 0.289. TTTTCGCGCTTTTGTAGTGTGCGT [ODN005] was tested, and the mTLR9 reporter activity was 0.788. Work on TTTTCGTGCGCAAGTTTTGCGTGT [ODN027] yielded a mTLR9 reporter activity of 0.404. In the case of TTTTCTTTTGTCGCGCGTGAGAGT [ODN006], the mTLR9 reporter activity is reported as 0.358. Sequence TTTTGAGCGCGCGCGCAGCTTTTT [ODN022] has a mTLR9 reporter activity of 0.357. For TTTTGCGAGCGCAGTTTTCGCTGT [ODN028], the mTLR9 reporter activity was 0.335. For TTTTGCGCGACGTGCTTTTGTTGT [ODN007], the mTLR9 reporter activity was 0.178. TTTTGCGCGAGTTTTGCTTCGCGT [ODN053] was tested, and the mTLR9 reporter activity was 0.186. TTTTGCGCGTGAGCGTGCGTTTTT [ODN009] showed a mTLR9 reporter activity of 0.362. TTTTGCGCGTTTGCGATTTTGCGT [ODN047] was tested, and the mTLR9 reporter activity was 0.224. In the case of TTTTGCGTGCGACGTCGCGCTTTT [ODN023], the mTLR9 reporter activity is reported as 0.377. TTTTGCTTTTCGCGCGAGCAGCGT [ODN015] gave a mTLR9 reporter activity of 0.315. With TTTTGTCGAGCGCGCAGTGTTTTT [ODN036] the mTLR9 reporter activity was 0.38. TTTTGTTTTGCAGTGCGTCGCGAT [ODN017] showed a mTLR9 reporter activity of 0.34. In the case of TTTTTCGTGCAGCGCGTGTTTTGT [ODN030], the mTLR9 reporter activity is reported as 0.42. TTTTTGCGACGCGCGTGCGTTTTT [ODN021] showed a mTLR9 reporter activity of 0.33. With TTTTTGCGTGCGCGCTGTCGTTGT [ODN114] the mTLR9 reporter activity was 0.099.

This is a noisy data set.
